# Values from PubChem BioAssay AID504793 (Drosophila RNAi Screening Center, 2011).
# Purpose: 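Knock-downs allowing continued mitosis even though DNA is damaged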 (primary screen)
# System: Drosophila S2R+ cells
# Knock-down reagent: long dsRNA against Drosophila genes, about 0.25 µg dsRNA per well
# Duration: 4 days of dsRNA, then 4 hours of drug before read-out
# Conditions: doxorubicin 0.5 µM for 4 hours to cause double-strand breaks, in cells also given a low, harmless dose of dsRNA against nbs to sensitise the assay
# Read-out: 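Mitotic index as the number of phospho-histone H3-positive cells in each well following doxorubicin, given as raw counts without normalisation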
# Scale: mitotic cells: higher = more cells in mitosis, weaker G2 arrest
# Call rule: 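a call needs confirmation in secondary tests, with other dsRNAs and a check of mitotic timing without damage, not just a high primary count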
# Calls: active = confirmed in follow-up tests; inactive = not confirmed
# The screen tested about 23,000 reagents; shown is an unselected part of those with a known target gene and a result. Of all reagents, 62 (0.27%) are marked active. 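Calls come from follow-up tests whose scores are not deposited, so confirmed genes may have low counts here; counts are not normalised per plate.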 Raw values are not corrected between plates. Entries without a mark were called inactive.
The first 3 records as a preview:
target,DRSC id,"mitotic cells, replicate 1"
CG17298,DRSC15221,7
CG17298,DRSC27897,6
CG11267,DRSC09833,4

Results, from the first entry:
target,DRSC id,"mitotic cells, replicate 1"
CG17298,DRSC15221,7
CG17298,DRSC27897,6
CG11267,DRSC09833,4
CG32376,DRSC22754,10
CG7246,DRSC18422,14
CG14440,DRSC23008,10
CG14440,DRSC23009,14
CG14440,DRSC25806,5
CG18662,DRSC02691,12
CG5172,DRSC19936,12
CG5172,DRSC23493,4
CG42789,DRSC13793,7
CG18528,DRSC15340,13
Adi1 (Acireductone dioxygenase 1),DRSC10945,10
Adi1 (Acireductone dioxygenase 1),DRSC21485,8
Ibf2 (Insulator binding factor 2),DRSC16551,7
Taf3 (TBP-associated factor 3),DRSC17170,25
Taf3 (TBP-associated factor 3),DRSC29650,5
CG31495,DRSC16762,4
CG31495,DRSC29177,5
PIG-Q (Phosphatidylinositol glycan anchor biosynthesis class Q),DRSC19138,12
mtd (mustard),DRSC12131,9
mtd (mustard),DRSC12380,6
mtd (mustard),DRSC12381,4
mtd (mustard),DRSC29132,2
